These are literature values, as cited in US7094600B2, “Screen for sodium channel modulators” (The Research Foundation of State University of New York, priority 2003, dated 2006).

The conditions of this data set: as antiarrhythmic agent; cited from earlier work.

For the molecule `CCCCc1oc2ccccc2c1C(=O)c1cc(I)c(OCCN(CC)CC)c(I)c1` [amiodarone], the therapeutic plasma concentration is 0.77 to 3.1 µM.
On to `CCCNCC(O)COc1ccccc1C(=O)CCc1ccccc1` (centres unmarked) [propafenone], for which the therapeutic plasma concentration is 0.5 to 1.5 µM.
